Data taken from paper PMC4855679.
These are yes or no findings as the source states them, for the method shown. In cells and extracts the contact can be indirect. Some results given as binding are weak or reduced against the parent protein; the word gives no strength.

By UniProt entry, the sequences of proteins in these tests, tags left out. Where a name states a change or a piece, a line headed by the entry shows the natural chain unless it says otherwise. Chains listed by the source or under a name are the forms on record and can include a tag or linker. Residues count along the entry.
UniProt P37238: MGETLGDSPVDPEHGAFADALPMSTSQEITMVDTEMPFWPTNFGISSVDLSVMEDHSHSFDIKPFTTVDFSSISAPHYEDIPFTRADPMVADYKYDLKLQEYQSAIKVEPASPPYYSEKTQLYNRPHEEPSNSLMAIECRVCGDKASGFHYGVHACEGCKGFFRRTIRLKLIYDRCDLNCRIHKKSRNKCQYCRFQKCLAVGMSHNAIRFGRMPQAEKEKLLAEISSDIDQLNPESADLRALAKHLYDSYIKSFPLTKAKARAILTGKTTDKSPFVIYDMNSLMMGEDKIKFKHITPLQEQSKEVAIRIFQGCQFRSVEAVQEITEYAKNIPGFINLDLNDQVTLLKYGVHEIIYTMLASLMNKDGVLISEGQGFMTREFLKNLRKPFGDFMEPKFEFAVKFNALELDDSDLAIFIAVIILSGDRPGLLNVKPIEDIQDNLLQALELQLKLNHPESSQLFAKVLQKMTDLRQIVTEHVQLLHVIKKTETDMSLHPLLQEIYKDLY
HA-tagged PPAR-γ2 amino acids 1–280: residues 1-280 of P37238
HA-tagged PPAR-γ2 amino acids 1–183: residues 1-183 of P37238
HA-tagged PPAR-γ2 residues 183–505: residues 183-505 of P37238
UniProt O35973: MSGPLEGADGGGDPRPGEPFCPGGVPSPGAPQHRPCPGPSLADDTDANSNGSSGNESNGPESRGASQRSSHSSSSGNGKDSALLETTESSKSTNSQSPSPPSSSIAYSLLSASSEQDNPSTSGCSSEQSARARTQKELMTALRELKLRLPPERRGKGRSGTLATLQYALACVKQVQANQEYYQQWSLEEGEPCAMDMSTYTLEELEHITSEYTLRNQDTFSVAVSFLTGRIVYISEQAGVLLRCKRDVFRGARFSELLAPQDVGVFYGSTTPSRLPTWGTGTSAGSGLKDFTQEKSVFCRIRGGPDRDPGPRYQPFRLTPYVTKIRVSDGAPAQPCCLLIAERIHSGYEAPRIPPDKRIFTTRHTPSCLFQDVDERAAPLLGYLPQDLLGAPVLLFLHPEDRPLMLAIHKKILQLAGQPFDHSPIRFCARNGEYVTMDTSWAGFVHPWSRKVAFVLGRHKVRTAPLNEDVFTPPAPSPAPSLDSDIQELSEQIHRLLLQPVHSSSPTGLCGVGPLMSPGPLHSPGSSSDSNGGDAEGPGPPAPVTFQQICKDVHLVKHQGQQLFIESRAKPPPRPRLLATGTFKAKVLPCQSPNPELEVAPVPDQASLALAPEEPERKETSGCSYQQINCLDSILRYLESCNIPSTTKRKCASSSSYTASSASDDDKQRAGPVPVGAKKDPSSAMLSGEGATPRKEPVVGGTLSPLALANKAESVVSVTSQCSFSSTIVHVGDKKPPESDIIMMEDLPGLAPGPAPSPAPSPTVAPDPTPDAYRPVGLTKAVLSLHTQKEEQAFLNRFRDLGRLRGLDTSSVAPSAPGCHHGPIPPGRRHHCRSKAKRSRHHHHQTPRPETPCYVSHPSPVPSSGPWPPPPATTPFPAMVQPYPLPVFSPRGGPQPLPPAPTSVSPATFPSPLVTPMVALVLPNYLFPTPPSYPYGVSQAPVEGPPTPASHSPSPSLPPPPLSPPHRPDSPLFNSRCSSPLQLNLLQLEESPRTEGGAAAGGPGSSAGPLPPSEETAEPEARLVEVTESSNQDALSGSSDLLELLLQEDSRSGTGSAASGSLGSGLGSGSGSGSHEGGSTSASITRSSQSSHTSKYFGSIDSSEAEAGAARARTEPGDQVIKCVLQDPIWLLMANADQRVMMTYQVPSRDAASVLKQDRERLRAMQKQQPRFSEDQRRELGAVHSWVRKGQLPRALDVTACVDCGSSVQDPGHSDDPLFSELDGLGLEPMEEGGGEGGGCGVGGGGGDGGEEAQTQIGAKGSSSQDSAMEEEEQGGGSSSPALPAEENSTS

Legend:
Assay in all cases: co-IP; B6F10 cells co-transfected with HA-tagged fragments of PPAR-γ2 and PER1; lysis in 10 mM Tris-HCl pH 8, 420 mM NaCl, 1 mM EDTA, 0.5% NP-40; anti-HA antibody overnight at 4 °C, Protein A-Sepharose 4B; blot for PER1
[1] = biological target: HA-tagged PPAR-γ2 amino acids 1–280 (UniProt P37238)
[2] = biological target: HA-tagged PPAR-γ2 residues 183–505 (UniProt P37238)
[3] = biological target: HA-tagged PPAR-γ2 amino acids 1–183 (UniProt P37238)

## PER1 (from UniProt O35973 1-1291)
[1]
  binding: binds
[2]
  binding: no binding
[3]
  binding: no binding
